Publication PMC5117851
No constants are given. Whether binding was seen depends on the method and setting. In cells and extracts the contact can be indirect. Some binding calls cover weakened binding; strength is not graded here.

Assays:
[1] = target: Axl receptor tyrosine kinase (human (endogenous in SNB-19)) (UniProt P30530); assay: co-IP; endogenous proteins in SNB-19 lysate (IP lysis buffer), with or without EGF (50 ng/ml, 5 min) before lysis; 2 ug Axl or EGFR IP antibody, 2 h at room temperature, protein A/G-agarose beads; western blot
[2] = target: Axl in the BiFC vector pDEST-ORF-V1 (UniProt P30530); assay: split reporter; Venus BiFC in HEK-293T cells transfected with Axl in pDEST-ORF-V1 and EGFR in pDEST-ORF-V2, 16 h; confocal microscopy and high-content single cell fluorescence; with or without EGF, with or without gefitinib

| binding [1] | binding [2] | Substance |
| --- | --- | --- |
| binds |  | EGFR (from UniProt P00533 25-1210) (receptor) |
|  | binds | EGFR in the BiFC vector pDEST-ORF-V2 (from UniProt P00533 25-1210) (receptor) |
